These results are taken from the supplement of paper PMC12819154, “High-throughput peptide-centric local stability assay extends protein–ligand identification to membrane proteins, tissues and bacteria” (Nature Structural & Molecular Biology, 2025).

Protein sequences, listed by entry. Tags and fused reporters are not part of them. Lines headed by an entry give the natural chain unless they say otherwise; changes in a name come on top.
UniProt O08900: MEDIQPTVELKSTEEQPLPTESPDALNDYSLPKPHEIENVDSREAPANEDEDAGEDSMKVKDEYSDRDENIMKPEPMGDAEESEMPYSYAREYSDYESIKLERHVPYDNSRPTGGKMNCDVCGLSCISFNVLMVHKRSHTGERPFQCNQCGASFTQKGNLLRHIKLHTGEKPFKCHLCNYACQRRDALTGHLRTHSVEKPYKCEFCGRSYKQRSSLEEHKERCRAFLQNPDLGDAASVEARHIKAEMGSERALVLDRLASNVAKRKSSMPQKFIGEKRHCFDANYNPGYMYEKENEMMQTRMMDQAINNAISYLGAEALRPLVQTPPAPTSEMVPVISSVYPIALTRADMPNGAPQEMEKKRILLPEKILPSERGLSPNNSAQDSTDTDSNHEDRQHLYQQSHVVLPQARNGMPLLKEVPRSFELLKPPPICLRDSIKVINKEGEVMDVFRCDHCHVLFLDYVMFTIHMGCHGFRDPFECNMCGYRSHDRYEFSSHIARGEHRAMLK
UniProt O08999: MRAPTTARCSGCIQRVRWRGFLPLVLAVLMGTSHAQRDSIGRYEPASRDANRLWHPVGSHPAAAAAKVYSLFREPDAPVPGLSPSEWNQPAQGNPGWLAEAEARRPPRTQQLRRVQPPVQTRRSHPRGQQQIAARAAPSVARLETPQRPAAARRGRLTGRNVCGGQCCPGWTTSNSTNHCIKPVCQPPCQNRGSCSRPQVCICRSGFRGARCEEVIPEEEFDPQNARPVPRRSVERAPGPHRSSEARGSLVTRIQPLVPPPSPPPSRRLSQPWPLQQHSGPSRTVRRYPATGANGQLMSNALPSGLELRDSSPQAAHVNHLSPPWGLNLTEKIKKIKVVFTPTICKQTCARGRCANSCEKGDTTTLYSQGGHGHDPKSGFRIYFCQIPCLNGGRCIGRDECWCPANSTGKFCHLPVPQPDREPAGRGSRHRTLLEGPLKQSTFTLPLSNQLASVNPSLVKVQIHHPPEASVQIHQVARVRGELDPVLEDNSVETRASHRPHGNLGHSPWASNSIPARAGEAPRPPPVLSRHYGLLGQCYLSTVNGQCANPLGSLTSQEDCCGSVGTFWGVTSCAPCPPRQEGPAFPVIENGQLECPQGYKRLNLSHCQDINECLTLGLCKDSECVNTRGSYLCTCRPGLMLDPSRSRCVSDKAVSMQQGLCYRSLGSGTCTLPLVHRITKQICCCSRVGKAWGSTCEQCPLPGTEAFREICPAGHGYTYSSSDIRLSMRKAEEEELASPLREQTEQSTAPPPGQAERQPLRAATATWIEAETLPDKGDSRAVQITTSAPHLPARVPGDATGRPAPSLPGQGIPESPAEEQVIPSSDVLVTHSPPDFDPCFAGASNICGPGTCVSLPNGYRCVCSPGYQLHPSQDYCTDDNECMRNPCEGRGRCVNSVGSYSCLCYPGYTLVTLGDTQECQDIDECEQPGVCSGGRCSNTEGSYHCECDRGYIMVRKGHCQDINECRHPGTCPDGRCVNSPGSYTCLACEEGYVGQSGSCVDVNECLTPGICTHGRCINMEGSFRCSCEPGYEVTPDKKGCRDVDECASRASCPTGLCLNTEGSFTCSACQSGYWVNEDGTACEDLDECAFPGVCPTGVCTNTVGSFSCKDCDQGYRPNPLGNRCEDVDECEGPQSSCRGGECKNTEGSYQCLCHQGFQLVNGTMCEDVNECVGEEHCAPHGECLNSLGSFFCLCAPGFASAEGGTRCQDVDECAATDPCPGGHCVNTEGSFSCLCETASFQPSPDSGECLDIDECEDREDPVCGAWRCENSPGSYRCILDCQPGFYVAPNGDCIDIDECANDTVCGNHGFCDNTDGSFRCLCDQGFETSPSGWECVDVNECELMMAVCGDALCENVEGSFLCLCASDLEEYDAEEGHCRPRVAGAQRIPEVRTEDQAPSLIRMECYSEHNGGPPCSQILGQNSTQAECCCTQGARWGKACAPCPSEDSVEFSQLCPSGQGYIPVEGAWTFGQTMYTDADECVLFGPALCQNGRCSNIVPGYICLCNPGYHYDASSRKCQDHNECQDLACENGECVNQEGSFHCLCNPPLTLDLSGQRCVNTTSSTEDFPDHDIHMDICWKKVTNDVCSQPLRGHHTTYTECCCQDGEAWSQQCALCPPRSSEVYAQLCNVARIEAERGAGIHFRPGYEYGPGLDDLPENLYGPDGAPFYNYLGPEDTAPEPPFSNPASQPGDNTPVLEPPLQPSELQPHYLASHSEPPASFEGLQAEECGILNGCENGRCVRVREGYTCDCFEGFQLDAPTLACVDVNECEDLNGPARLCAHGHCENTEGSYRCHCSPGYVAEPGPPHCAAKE
UniProt E9Q236: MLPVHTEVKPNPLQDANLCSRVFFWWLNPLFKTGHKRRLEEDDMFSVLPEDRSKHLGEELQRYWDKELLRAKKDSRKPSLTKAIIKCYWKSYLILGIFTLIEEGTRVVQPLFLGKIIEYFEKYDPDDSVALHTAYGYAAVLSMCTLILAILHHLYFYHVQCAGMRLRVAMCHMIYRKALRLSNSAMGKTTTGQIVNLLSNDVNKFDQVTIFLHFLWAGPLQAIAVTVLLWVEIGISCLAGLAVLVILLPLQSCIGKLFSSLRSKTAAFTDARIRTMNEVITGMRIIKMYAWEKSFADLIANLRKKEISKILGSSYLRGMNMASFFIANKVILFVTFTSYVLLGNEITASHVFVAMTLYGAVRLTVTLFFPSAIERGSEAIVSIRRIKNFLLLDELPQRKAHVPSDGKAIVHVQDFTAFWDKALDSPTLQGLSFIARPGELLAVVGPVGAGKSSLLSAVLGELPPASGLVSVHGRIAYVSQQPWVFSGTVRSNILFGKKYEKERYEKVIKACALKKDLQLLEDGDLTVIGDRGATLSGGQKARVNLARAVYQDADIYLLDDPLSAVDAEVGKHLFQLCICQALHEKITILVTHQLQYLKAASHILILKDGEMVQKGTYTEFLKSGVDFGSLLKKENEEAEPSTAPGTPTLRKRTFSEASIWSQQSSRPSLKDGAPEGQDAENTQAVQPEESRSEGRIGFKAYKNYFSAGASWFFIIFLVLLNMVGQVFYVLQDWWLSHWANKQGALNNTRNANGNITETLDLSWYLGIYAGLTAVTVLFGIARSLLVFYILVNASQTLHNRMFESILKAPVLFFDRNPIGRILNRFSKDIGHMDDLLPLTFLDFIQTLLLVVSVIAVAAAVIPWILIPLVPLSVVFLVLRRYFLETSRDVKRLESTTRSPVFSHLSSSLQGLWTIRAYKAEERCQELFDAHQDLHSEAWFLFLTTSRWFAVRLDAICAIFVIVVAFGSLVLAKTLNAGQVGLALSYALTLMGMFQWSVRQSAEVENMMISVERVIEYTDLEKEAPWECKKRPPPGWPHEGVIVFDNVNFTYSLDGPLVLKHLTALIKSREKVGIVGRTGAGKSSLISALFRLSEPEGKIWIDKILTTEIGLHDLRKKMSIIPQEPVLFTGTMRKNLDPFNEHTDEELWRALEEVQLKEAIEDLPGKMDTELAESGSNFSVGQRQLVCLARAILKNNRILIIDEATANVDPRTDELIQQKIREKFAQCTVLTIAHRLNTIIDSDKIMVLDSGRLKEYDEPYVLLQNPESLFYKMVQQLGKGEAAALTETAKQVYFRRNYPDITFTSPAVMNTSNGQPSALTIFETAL
UniProt D3YWE6, whole entry: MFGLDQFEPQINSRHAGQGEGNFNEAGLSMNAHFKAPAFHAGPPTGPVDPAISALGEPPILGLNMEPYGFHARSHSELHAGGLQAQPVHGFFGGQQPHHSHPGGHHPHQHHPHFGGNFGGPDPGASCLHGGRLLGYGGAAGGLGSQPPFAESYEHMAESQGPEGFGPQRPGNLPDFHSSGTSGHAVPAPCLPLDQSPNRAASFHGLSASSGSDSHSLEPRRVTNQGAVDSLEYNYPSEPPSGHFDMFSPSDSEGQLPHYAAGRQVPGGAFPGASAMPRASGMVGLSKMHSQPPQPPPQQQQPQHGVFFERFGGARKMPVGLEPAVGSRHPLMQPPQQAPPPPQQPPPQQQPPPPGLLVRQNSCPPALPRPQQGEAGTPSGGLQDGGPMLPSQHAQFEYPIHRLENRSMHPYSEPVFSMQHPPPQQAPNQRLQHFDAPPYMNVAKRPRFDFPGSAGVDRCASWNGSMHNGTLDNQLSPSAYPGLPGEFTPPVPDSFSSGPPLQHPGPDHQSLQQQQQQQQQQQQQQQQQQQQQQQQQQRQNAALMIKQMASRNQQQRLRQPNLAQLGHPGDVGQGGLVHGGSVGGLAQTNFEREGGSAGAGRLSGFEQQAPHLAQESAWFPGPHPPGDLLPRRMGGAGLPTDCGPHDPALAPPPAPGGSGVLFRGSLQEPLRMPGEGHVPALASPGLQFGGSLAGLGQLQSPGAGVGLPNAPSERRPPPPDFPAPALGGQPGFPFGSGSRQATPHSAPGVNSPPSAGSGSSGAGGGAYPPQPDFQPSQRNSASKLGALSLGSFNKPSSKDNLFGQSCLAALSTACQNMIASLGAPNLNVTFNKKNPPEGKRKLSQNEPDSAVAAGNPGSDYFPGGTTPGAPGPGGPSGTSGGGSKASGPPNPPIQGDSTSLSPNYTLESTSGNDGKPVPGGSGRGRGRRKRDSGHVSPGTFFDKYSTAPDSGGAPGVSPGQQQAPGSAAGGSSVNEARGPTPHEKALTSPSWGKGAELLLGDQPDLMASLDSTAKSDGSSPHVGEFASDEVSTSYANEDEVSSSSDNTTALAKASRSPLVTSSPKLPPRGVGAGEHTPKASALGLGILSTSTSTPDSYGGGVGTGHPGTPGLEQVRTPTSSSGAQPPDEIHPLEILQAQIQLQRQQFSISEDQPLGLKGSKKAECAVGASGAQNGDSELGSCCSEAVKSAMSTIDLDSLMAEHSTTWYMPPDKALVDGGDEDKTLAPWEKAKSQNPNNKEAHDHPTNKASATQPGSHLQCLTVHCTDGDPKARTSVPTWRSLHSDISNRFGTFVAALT

The other results are listed elsewhere or left out. Small differences around the control level are noise.

Compound in the assay: CN[C@@H]1C[C@H]2O[C@@](C)([C@@H]1OC)n1c3ccccc3c3c4c(c5c6ccccc6n2c5c31)C(=O)NC4 [staurosporine]
Nature of the assay: log2 fold change of tryptic peptide abundance, ligand vs vehicle (limited proteolysis) (log2 ratio); higher = more trypsin-susceptible (destabilized). The settings on record: ligand concentration: 20 uM; sample: mouse liver crude lysate; replicate design: treated separately.
Consider “UniProt O08900 (peptide sequence: DALTGHLR, peptide start residue: 185)”, for which the log2 fold change was determined as 0.112.

“UniProt D3YUB6 (peptide sequence: STLGDSVKR, peptide start residue: 1011)”: the log2 fold change was 0.314.

Regarding “UniProt O08999 (peptide sequence: GSCSRPQVCICR, peptide start residue: 193)”, the log2 fold change came out at 0.000336.

“UniProt E9Q236 (peptide sequence: ERYEKVIK, peptide start residue: 502)”: the log2 fold change came to 0.0647.

In the case of “UniProt D3YWE6 (peptide sequence: KMPVGLEPAVGSR, peptide start residue: 316)”, the log2 fold change was found to be 0.409.
